Data as given in the supplement of paper PMC10735217.
Some of the results follow. Single values are uncertain here, since repeats match poorly.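 The human kidney-derived cells carry a stably integrated construct of eight TEAD-binding elements driving luciferase, read by luminescence in a drug-repurposing library screen. A compound counts as a hit when its signal is more than five robust Z scores above the plate mean.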

System: HEK293A TEAD-LUC reporter
Assay: TEAD-luciferase reporter activity (YAP activation), robust Z score vs plate; higher = stronger YAP/TEAD activation
Details: 24 h

SMILES	TEAD-luciferase reporter activity (compound concentration: 200 nM)	TEAD-luciferase reporter activity (compound concentration: 2 uM)	TEAD-luciferase reporter activity (compound concentration: 10 uM)
Cc1cc(=O)oc2cc(O)ccc12	inactive: -0.108	inactive: -0.26	inactive: -0.449
COc1ccc(CN2CCN(CC(=O)O)CC2)c(OC)c1OC	inactive: -2.4	inactive: -0.673	inactive: 1.44
C[C@H]1Oc2c(cccc2N2CCN(CCCc3c[nH]c4ccc(F)cc34)CC2)NC1=O	inactive: -0.901	inactive: 0.368	inactive: -0.566
O=C(c1ccccc1Cl)c1cccnc1-c1nnn(Cc2cc(C(F)(F)F)cc(C(F)(F)F)c2)c1-c1ccncc1 [tradipitant]	inactive: 0.206	inactive: -0.787	inactive: -0.0702
CONC1=NC(=O)/C(=C/c2cc(C(C)(C)C)c(O)c(C(C)(C)C)c2)S1	inactive: -0.653	inactive: -1.64	inactive: -1.71
COCC1(COC)Oc2ccc(C#N)cc2[C@@H](Nc2ccc(=O)n(C)n2)[C@@H]1O	inactive: 0.544	inactive: -1.7	inactive: -0.321
O=C(NC1CCCCC1)NS(=O)(=O)c1ccc(CCNC(=O)c2cccc3c2OCC3)cc1	inactive: -2.26	inactive: -0.326	inactive: -0.515
CC(=O)N1CCN(CCOc2ccc(C3CCN(C4=Nn5c(nnc5C(F)(F)F)CC4)CC3)cc2)CC1	inactive: -1.04	inactive: -1.12	inactive: 0.762
Cn1cc(CNCC2CCN(c3ncc(C(=O)NO)cn3)CC2)c2ccccc21 [Quisinostat]	inactive: 0.467	–	active: 39.8
Cn1cc(CNCC2CCN(c3ncc(C(=O)NO)cn3)CC2)c2ccccc21 [quisinostat]	–	active: 25.4	–
COc1cc2c(cc1OC)-c1c(C)c3ccc(OC)c(OC)c3c[n+]1CC2 [Dehydrocorydaline]	active: 10.7	inactive: -1.34	inactive: 4.12
O=C(NCC(F)F)C1CCCN(c2nc3ncccc3o2)C1 (centres undefined)	inactive: -1.26	–	inactive: -0.897
CC(C)C[C@H](N)C(=O)N1CCC[C@H]1C(=O)N[C@@H](Cc1ccccc1)C(=O)N[C@@H](Cc1ccccc1)C(=O)N[C@@H](CC(=O)O)C(=O)O [Beta-sheet breaker peptide]	inactive: -0.138	inactive: -0.793	inactive: -0.422
Clc1ccc(COC(Cn2ccnc2)c2ccc(Cl)cc2Cl)c(Cl)c1 (centres undefined)	inactive: -2.02	inactive: -0.0343	inactive: 1.05
Clc1cc(/C=C\CN2CCCCCC2)ccc1C1CCCCC1	inactive: -0.851	inactive: -1.71	inactive: 0.987
Fc1ccc(C2CCNCC2COc2ccc3c(c2)OCO3)cc1 (centres undefined) [paroxetine]	–	inactive: 3.8	–
Fc1ccc(C2CCNCC2COc2ccc3c(c2)OCO3)cc1 (centres undefined) [Paroxetine]	inactive: -1.01	–	inactive: -0.162
Nc1ccc(C(=O)N(CCN2CCC(C(=O)c3ccccc3)CC2)c2cccnc2)cc1	inactive: -1.41	inactive: -1.29	inactive: -1.5
CCCC(=O)Nc1c(I)cc(I)c(CC(CC)C(=O)O)c1I (centres undefined) [Tyropanoate Sodium]	inactive: 2.11	inactive: -0.834	inactive: -0.124
O=c1[nH]c(=O)n([C@H]2C[C@H](O)[C@@H](CO)O2)cc1F [5-fluoro-2'-deoxyuridine]	–	inactive: -1.89	–
O=c1[nH]c(=O)n([C@H]2C[C@H](O)[C@@H](CO)O2)cc1F	inactive: -2.68	–	inactive: -2.21
COC(=O)N[C@@H](C)CNc1nccc(-c2cn(C(C)C)nc2-c2cc(Cl)cc(NS(C)(=O)=O)c2F)n1	inactive: -1.97	–	inactive: -0.28
COC(=O)N[C@@H](C)CNc1nccc(-c2cn(C(C)C)nc2-c2cc(Cl)cc(NS(C)(=O)=O)c2F)n1 [Encorafenib]	–	inactive: -1.54	–
Cc1nc(Cn2cnc3c2c(=O)[nH]c(=O)n3C)no1	inactive: -0.496	inactive: -0.801	inactive: 0.796
C=CC/N=C1/Nc2cccc(c2)C(=O)[O][Cu-][S]1	inactive: 2.46	inactive: -0.657	inactive: 2.84
Cc1cc(-c2cc3c(cc2F)c(=O)c(C(=O)O)cn3C2CC2)cc(C)n1	inactive: 1.72	inactive: 1.5	inactive: -1.17
CCc1ccc(NC(=O)N2CCN(c3ccccc3OC)CC2)cc1	inactive: -0.285	inactive: 0.306	inactive: 3.9
OCC(O)CO	inactive: -0.348	inactive: -0.751	active: 6.99
CC(C)[C@H](NC(=O)[C@H](CCCNC(=N)N)NC(=O)[C@@H](N)CC(N)=O)C(=O)N[C@@H](Cc1ccc(O)cc1)C(=O)N[C@H](C(=O)N[C@@H](Cc1c[nH]cn1)C(=O)N1CCC[C@H]1C(=O)N[C@@H](Cc1ccccc1)C(=O)O)C(C)C	inactive: -1.75	inactive: -0.884	inactive: 1.91

Whole records from above. Order of values: TEAD-luciferase reporter activity (compound concentration: 200 nM)	TEAD-luciferase reporter activity (compound concentration: 2 uM)	TEAD-luciferase reporter activity (compound concentration: 10 uM)
C[C@H]1Oc2c(cccc2N2CCN(CCCc3c[nH]c4ccc(F)cc34)CC2)NC1=O in the list: inactive: -0.901	inactive: 0.368	inactive: -0.566
COCC1(COC)Oc2ccc(C#N)cc2[C@@H](Nc2ccc(=O)n(C)n2)[C@@H]1O in the list: inactive: 0.544	inactive: -1.7	inactive: -0.321
